Reference: patent US9464049B2, “Indole-carboxamides” (Hoffmann-La Roche Inc., priority 2013, dated 2016)

Columns and labels:
[1] = system: human embryonic stem cell derived neural stem cells (NSCs); assay: Neural stem cell proliferation assay (neurogenesis assay, ATP levels by CellTiterGlo); type: cell-based; settings: 96 h, compound concentration at which 150% activity of control (100%) is reached, NSC proliferation by ATP (CellTiterGlo) after 4 days incubation, dose response 8 μM to 8 nM
Protocol: Neural Stem Cell Proliferation Assay
Neurogenic properties of small molecules are determined based on the proliferation of human embryonic stem cell derived neural stem cells (NSCs) which were derived via a dual smad inhibition as previously described (Chambers, S. M., et al., Highly efficient neural conversion of human ES and iPS cells by dual inhibition of SMAD signaling, Nature biotechnology, 2009. 27(3): p. 275-80.)
Compounds respond is measured by the increase in cells based on ATP levels (Promega:CellTiterGlo®) after an incubation period of 4 days.
NSCs are thawed and expanded over 3 passages. On the 14th day, NSCs are seeded in Polyornithin/Laminin coated 384 well plates at a cell density of 21,000 cells/cm^2 in a media volume of 38 μl.
4 hours after cell seeding, compound solutions are added at a volume of 2 μl. […]
After 4 days incubation at 37° C., 5% CO2, the amount of ATP per well is quantified. […] ATP is quantified by using the Promega CellTiterGlo® kit. […] The luminescence signal is proportional to the ATP content.
The value of negative (neutral) control is determined for each assay plate by taking the average of 16 negative control wells. The neurogenic compound response is calculated for each compound as (compound/Negative Control)*100.
The values of EC150 from the dose response curve are determined for each test compound. […]

melting point [°C]	SMILES	EC (150% of control) [1] [µM]
209	Cn1c(C(N)=O)cc2cc(C#N)cc(-c3ccnc(Cl)c3)c21 [Example 69, 7-(2-Chloropyridin-4-yl)-5-cyano-1-methylindole-2-carboxamide]	0.13
220	Cc1cc(-c2cc(C#N)cc3cc(C(N)=O)n(C)c23)ccc1F [Example 65, 5-Cyano-7-(4-fluoro-3-methylphenyl)-1-methylindole-2-carboxamide]	0.18
